Test results reported in the supplement of paper PMC10849652.
The other results are listed elsewhere or left out.

Chains of the proteins cited; added tags and fusions are not shown. Lines headed by an entry give the natural chain unless they say otherwise; changes in a name come on top.
UniProt Q8IYI6: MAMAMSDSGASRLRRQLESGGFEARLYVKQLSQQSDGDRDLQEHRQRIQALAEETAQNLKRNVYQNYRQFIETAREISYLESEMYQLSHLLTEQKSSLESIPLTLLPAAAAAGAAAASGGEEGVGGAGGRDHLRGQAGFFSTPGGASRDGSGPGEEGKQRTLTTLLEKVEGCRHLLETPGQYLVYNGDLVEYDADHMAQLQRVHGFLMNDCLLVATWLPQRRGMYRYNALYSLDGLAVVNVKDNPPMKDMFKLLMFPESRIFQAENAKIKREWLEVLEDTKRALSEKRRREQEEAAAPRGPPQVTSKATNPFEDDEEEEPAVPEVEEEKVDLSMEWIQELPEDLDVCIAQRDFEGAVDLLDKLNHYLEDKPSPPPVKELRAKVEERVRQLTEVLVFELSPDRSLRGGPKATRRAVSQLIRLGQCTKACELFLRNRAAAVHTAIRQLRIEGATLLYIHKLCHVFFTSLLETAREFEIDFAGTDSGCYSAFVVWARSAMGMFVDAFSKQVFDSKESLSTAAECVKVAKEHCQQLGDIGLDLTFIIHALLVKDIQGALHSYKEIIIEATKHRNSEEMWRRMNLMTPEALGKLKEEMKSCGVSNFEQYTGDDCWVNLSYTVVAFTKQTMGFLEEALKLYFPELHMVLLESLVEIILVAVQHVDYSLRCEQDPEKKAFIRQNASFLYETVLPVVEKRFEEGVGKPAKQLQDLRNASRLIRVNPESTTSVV
UniProt Q8N612: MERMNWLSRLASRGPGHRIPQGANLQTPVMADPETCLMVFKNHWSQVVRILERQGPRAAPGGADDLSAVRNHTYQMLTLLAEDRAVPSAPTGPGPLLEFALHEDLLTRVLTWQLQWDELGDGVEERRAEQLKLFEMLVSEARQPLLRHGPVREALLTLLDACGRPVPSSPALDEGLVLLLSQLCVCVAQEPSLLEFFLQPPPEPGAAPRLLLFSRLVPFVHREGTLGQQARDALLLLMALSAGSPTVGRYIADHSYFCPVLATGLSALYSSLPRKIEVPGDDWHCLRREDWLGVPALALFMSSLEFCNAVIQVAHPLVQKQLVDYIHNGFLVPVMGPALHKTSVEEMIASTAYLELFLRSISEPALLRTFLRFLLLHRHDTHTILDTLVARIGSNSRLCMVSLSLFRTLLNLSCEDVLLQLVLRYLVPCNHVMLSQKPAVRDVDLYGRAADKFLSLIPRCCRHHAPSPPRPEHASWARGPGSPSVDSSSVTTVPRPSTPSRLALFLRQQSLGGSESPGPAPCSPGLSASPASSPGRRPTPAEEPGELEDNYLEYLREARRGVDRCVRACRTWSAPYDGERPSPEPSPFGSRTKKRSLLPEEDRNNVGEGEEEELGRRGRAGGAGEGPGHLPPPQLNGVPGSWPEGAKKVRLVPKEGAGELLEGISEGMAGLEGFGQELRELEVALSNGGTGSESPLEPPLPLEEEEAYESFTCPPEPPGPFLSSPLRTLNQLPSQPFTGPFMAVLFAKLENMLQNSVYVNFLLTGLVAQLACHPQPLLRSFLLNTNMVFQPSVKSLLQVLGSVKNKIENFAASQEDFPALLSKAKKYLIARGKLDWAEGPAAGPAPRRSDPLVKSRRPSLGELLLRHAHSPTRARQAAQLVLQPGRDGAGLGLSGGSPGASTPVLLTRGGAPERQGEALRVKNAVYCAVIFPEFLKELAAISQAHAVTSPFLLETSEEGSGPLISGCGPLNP
UniProt Q15024, whole entry, looked up: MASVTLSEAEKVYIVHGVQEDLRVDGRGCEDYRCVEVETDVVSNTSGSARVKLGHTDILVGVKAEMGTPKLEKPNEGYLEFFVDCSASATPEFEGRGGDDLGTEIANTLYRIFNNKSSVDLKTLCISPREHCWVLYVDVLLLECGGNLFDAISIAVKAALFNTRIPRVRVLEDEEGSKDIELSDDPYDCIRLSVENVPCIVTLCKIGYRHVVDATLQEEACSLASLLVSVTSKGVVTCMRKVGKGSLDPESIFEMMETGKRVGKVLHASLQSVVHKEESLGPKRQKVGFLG
UniProt Q9H0Q0: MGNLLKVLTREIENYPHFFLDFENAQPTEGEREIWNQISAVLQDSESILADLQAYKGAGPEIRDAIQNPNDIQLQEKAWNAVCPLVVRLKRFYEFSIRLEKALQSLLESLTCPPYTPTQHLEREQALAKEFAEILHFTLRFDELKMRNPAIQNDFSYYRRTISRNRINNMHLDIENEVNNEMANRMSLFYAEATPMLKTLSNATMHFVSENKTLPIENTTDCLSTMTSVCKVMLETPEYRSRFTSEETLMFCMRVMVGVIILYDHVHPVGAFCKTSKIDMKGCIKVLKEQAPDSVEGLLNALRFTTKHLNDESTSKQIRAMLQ
UniProt Q96PL5: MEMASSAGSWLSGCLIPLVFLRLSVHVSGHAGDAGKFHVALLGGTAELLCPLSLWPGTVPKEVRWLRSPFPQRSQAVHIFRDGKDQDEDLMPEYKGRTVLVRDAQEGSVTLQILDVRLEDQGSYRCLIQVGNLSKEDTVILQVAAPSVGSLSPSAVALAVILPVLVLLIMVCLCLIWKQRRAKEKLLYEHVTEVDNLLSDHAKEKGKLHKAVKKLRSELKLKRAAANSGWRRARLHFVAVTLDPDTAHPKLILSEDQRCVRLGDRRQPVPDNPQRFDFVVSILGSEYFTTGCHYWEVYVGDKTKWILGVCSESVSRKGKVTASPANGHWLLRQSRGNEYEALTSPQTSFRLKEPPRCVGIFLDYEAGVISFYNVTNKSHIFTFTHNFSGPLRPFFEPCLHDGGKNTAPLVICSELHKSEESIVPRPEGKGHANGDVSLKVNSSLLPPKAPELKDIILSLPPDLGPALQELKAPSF
UniProt Q9NQT4, whole entry, looked up: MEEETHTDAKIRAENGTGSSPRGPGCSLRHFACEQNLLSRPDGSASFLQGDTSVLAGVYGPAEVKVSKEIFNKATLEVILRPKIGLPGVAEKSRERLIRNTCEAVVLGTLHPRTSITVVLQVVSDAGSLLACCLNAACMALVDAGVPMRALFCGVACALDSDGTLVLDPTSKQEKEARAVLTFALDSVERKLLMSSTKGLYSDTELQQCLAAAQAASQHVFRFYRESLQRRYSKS
UniProt P12259: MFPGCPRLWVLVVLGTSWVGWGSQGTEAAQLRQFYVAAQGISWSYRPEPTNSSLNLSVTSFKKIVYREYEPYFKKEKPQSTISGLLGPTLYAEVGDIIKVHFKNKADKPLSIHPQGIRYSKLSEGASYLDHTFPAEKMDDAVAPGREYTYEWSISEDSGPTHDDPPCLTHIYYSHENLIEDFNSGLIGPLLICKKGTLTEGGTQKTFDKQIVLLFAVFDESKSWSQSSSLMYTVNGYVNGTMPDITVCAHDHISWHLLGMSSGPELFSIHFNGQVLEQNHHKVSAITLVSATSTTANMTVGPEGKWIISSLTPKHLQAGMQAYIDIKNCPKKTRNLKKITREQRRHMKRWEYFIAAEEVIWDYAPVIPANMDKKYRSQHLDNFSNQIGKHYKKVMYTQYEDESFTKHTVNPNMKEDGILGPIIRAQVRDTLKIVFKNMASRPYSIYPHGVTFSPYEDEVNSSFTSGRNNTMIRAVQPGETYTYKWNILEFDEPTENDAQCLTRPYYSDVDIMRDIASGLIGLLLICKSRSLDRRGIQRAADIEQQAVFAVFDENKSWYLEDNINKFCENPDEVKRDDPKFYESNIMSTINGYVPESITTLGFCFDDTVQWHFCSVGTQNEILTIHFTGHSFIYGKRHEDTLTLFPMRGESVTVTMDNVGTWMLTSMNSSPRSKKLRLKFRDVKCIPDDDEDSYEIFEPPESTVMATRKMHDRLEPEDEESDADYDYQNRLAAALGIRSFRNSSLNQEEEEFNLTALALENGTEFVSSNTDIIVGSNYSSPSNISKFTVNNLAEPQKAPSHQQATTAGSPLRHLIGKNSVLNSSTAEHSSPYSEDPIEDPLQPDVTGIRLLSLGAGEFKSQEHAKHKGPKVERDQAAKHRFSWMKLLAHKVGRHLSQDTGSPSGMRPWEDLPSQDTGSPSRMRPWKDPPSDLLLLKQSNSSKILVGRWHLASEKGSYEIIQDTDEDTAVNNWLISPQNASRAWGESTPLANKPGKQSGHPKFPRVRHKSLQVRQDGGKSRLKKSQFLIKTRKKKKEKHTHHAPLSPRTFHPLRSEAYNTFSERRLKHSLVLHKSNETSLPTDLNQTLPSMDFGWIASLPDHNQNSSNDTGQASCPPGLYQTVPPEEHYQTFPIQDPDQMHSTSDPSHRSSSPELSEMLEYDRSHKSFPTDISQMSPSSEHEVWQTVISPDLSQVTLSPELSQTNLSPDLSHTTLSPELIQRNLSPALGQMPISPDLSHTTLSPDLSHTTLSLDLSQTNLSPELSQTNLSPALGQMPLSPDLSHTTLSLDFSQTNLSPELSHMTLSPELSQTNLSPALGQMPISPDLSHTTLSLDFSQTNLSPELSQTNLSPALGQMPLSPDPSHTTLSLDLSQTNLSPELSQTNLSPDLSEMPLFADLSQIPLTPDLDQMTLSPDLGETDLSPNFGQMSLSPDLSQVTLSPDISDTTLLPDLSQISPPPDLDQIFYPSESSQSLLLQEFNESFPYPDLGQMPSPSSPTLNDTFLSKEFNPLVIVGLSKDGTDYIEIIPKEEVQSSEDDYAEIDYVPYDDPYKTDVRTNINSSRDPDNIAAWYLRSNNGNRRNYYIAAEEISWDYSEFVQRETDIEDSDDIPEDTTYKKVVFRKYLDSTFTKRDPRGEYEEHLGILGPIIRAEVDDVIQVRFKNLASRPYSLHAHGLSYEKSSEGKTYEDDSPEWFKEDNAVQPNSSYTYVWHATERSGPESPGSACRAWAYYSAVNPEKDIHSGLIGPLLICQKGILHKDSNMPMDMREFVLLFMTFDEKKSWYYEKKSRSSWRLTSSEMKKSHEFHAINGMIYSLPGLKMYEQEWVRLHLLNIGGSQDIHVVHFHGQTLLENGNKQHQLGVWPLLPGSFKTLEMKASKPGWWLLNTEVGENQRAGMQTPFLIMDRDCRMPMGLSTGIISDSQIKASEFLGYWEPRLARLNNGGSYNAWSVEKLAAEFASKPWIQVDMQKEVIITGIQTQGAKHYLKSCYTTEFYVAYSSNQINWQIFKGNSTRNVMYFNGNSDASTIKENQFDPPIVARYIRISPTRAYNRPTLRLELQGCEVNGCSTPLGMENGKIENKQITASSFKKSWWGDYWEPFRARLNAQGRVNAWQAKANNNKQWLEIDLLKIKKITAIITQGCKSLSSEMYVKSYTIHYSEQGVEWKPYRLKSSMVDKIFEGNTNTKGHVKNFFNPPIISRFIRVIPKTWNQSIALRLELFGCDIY
UniProt Q7Z2K6: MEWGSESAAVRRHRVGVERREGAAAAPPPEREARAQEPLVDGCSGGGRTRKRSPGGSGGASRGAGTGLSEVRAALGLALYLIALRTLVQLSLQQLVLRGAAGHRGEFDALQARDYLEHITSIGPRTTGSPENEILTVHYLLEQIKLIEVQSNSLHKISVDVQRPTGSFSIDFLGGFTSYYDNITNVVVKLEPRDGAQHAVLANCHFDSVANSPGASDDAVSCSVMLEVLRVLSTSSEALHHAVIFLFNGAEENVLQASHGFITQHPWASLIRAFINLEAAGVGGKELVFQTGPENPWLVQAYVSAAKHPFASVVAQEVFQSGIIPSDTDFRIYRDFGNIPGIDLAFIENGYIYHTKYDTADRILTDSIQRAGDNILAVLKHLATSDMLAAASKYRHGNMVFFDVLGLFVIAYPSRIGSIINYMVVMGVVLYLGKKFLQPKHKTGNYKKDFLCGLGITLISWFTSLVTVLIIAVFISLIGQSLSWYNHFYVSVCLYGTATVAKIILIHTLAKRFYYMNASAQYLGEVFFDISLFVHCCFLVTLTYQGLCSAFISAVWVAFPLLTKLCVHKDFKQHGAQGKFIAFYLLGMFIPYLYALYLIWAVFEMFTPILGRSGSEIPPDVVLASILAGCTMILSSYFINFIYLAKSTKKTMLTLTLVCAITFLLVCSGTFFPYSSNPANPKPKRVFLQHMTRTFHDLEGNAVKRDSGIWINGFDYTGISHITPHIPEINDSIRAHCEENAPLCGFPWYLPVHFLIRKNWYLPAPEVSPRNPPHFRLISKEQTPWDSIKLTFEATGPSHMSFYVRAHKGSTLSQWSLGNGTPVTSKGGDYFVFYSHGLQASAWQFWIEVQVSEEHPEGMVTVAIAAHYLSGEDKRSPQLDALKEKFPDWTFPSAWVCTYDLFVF

Tests used:
Experiment in all cases: log2 fold change, soluble protein after heating vs DMSO (PISA); higher = thermal stabilisation; K562 lysate, 10 uM; active = over 0.2 and 3.5 SD of the protein, either way, in both replicates (recomputed)
[1] = compound: C1=CC=C(C=C1)[C@H](COC2=CC3=C(C=C2)NC(=O)N3)NC(=O)C4=CC=CN(C4=O)CC5=CC(=C(C=C5)F)F
Procedure, shortened: (§1)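 Pellets of K562 cells were dounce-homogenised in PBS pH 7.4 with 1 mM MgCl2, and the crude extract was held at 1 mg/mL protein for a 30 min treatment with 10 μM compound. Aliquots were heated for 3 min over 48°C-58°C and pooled before NP-40 was added to 0.5% at 4°C. The supernatant from 21,000xg for 90 min was quantified by TMTpro 16plex LC-MS/MS with channel sums equalised. Values are reported from duplicates as log-two fold change in thermal stability relative to solvent controls.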

[2] = compound: CC1=C(SC2=C1C(=N[C@H](C3=NN=C(N32)C)CC(=O)N)C4=CC=C(C=C4)Cl)C
Procedure, shortened: as §1

[3] = compound: CC1=C2C(=CC=C1)N=C(N(C2=O)C3=CC=CC=C3C)CN4C=NC5=C(N=CN=C54)N
Procedure, shortened: as §1

[4] = compound: Cc1sc2c(c1C)C(c1ccc(Cl)cc1)=N[C@@H](CC(=O)OC(C)(C)C)c1nnc(C)n1-2
Procedure, shortened: as §1

[5] = compound: c1ccc([C@@H]2C[C@H]2NC2CCNCC2)cc1
Procedure, shortened: as §1

Measured: log2 fold change

ETNK1 (UniProt Q9HBU6)
inactive: [1] -0.008 | [2] -0.038 | [3] 0.031 | [4] -0.045 | [5] -0.033

ERLEC1 (UniProt Q96DZ1)
inactive: [1] 0.034 | [2] 0.005 | [3] 0.041 | [4] 0.025 | [5] -0.005

FAF1 (UniProt Q9UNN5)
inactive: [1] 0.017 | [2] -0.002 | [3] -0.01 | [4] -0.032 | [5] -0.018

EXOC8 (UniProt Q8IYI6)
inactive: [1] -0.025 | [2] 0.013 | [3] 0.026 | [4] -0.021 | [5] 0.037

FAF2 (UniProt Q96CS3)
inactive: [1] -0.032 | [2] -0.012 | [3] 0.03 | [4] 0.049 | [5] -0.059

FAM193A, A0A1B0GVL4
inactive: [1] -0.041 | [2] -0.036 | [3] 0 | [5] -0.024

EXOSC3 (UniProt Q9NQT5)
inactive: [1] -0.007 | [2] 0.026 | [3] 0.002 | [4] -0.045 | [5] 0.002

EXOC1 (UniProt Q9NV70)
inactive: [1] -0.011 | [2] 0.032 | [3] 0.013 | [4] 0.02 | [5] 0.068

FAM160A2 isoform 2 (UniProt Q8N612)
inactive: [1] 0.026 | [2] 0.028 | [3] 0.151 | [4] -0.068 | [5] -0.007

ERP29 (UniProt P30040)
inactive: [1] 0.015 | [2] 0.022 | [3] -0.03 | [4] 0.032 | [5] 0.072

FAM76A isoform 3 (UniProt Q8TAV0)
inactive: [1] -0.054 | [2] 0.054 | [3] -0.026 | [4] -0.023 | [5] 0.019

EXOSC7 (UniProt Q15024)
inactive: [1] 0.028 | [2] 0.024 | [3] -0.006 | [4] -0.072 | [5] -0.123

FAM210B (UniProt Q96KR6)
inactive: [1] -0.007 | [2] -0.031 | [3] -0.001 | [4] -0.034 | [5] -0.098

7 successive records from above, for reference:
FAF2 (UniProt Q96CS3)
inactive: [1] -0.032 | [2] -0.012 | [3] 0.03 | [4] 0.049 | [5] -0.059

FAM193A, A0A1B0GVL4
inactive: [1] -0.041 | [2] -0.036 | [3] 0 | [5] -0.024

EXOSC3 (UniProt Q9NQT5)
inactive: [1] -0.007 | [2] 0.026 | [3] 0.002 | [4] -0.045 | [5] 0.002

EXOC1 (UniProt Q9NV70)
inactive: [1] -0.011 | [2] 0.032 | [3] 0.013 | [4] 0.02 | [5] 0.068

FAM160A2 isoform 2 (UniProt Q8N612)
inactive: [1] 0.026 | [2] 0.028 | [3] 0.151 | [4] -0.068 | [5] -0.007

ERP29 (UniProt P30040)
inactive: [1] 0.015 | [2] 0.022 | [3] -0.03 | [4] 0.032 | [5] 0.072

FAM76A isoform 3 (UniProt Q8TAV0)
inactive: [1] -0.054 | [2] 0.054 | [3] -0.026 | [4] -0.023 | [5] 0.019

Following part

FAM49A (UniProt Q9H0Q0)
inactive: [1] 0.139 | [2] -0.001 | [3] 0.053 | [5] -0.085

ERMAP (UniProt Q96PL5)
inactive: [1] 0.068 | [2] 0.082 | [3] 0.016 | [4] 0.028 | [5] -0.092

EXOSC5 (UniProt Q9NQT4)
inactive: [1] -0.034 | [2] 0.01 | [3] 0.048 | [4] -0.008 | [5] 0.022

F5 (UniProt P12259)
inactive: [1] -0.041 | [2] 0 | [3] 0.049 | [4] -0.105 | [5] -0.022

FADD (UniProt Q13158)
inactive: [1] -0.007 | [2] 0.073 | [3] -0.05 | [4] 0.028 | [5] -0.022

ERP44 (UniProt Q9BS26)
inactive: [1] 0.055 | [2] 0.012 | [3] 0.036 | [4] -0.01 | [5] -0.046

FAM114A2 (UniProt Q9NRY5)
inactive: [1] 0.073 | [2] -0.002 | [3] -0.027 | [4] 0.019 | [5] 0.035

ERMP1 (UniProt Q7Z2K6)
inactive: [1] 0.028 | [2] 0 | [3] -0.029 | [4] -0.04 | [5] -0.055

ERO1A (UniProt Q96HE7)
inactive: [1] -0.002 | [2] 0.003 | [3] 0.001 | [4] -0.012 | [5] 0.04

FAM120A isoform 6 (UniProt Q9NZB2)
inactive: [1] -0.04 | [2] 0.009 | [3] -0.003 | [4] -0.022 | [5] -0.007

FAM83D (UniProt Q9H4H8)
inactive: [1] -0.021 | [2] 0.023 | [3] 0.035 | [4] -0.02 | [5] -0.006

ERICH1 (UniProt Q86X53)
inactive: [1] -0.032 | [2] -0.229 | [3] 0.008 | [4] -0.038 | [5] -0.014
